In test [1] the target is Biotinylated H3 (1–13) peptide, H3K4me1 (UniProt P68431). Description: pull-down; biotinylated H3 (1–13) peptides on streptavidin Dynabeads, incubated with bacterial crude lysate expressing GST-Taf3-PHD; 2 h, 4°C; 50 mM Tris–HCl pH 8.0, 150 mM NaCl, 0.5% NP-40, 10 μM ZnCl2; SDS–PAGE, Coomassie; only the target purified.
In test [2] the target is Biotinylated H3 (1–13) peptide, H3K4me2 (UniProt P68431). The description is as above.
Test [3] addresses Biotinylated H3 (1–13) peptide, H3K4me2Q5ser (UniProt P68431). The description is as above.
Test [4] has as its target Biotinylated H3 (1–13) peptide, H3K4me3 (UniProt P68431). The description is as above.
In test [5] the target is Biotinylated H3 (1–13) peptide, H3Q5ser (H3K4me0) (UniProt P68431). Described as above.
Test [6] concerns the target Biotinylated H3 (1–13) peptide, unmodified (H3K4me0) (UniProt P68431). The test is described as above.
Test [7] deals with T1, H3 peptide, unmodified, biotinylated: H-…(biotin)-NH2.
T1 sequence (peptide, biotin on the C-terminal lysine (K14); C-terminal amide): ARTKQTARKSTGGK
Description: pull-down; biotinylated H3 peptides immobilised on Dynabeads M-280 Streptavidin, incubated with bacterial crude lysate expressing GST-Taf3-PHD; 50 mM Tris-HCl pH 8.0, 150 mM NaCl, 0.5% NP-40, 10 uM ZnCl2, 2 h at 4°C; SDS-PAGE, Coomassie; only the target purified.

The target in test [8] is T2, H3K4me1 peptide, biotinylated: H-ARTK(Me)…(biotin)-NH2.
T2 sequence (peptide, monomethyl-lysine at 4; biotin on the C-terminal lysine (K14); C-terminal amide): ARTKQTARKSTGGK
The description is as above.

Test [9] has as its target T3, H3K4me2 peptide, biotinylated: H-ARTK(Me2)…(biotin)-NH2.
T3 sequence (peptide, dimethyl-lysine at 4; biotin on the C-terminal lysine (K14); C-terminal amide): ARTKQTARKSTGGK
Described as above.

Test [10] deals with T4, H3K4me3 peptide, biotinylated: H-ARTK(Me3)…(biotin)-NH2.
T4 sequence (peptide, trimethyl-lysine at 4; biotin on the C-terminal lysine (K14); C-terminal amide): ARTKQTARKSTGGK
Described as above.

No constants are given. Whether binding was seen depends on the method and setting. In cells and extracts the contact can be indirect. Some binding calls cover weakened binding; strength is not graded here. Tags and fused reporters may be left off the sequences shown.

B1: GST-tagged Mus musculus Taf3-PHD domain (residues 857-924), wild type (domain or fragment, UniProt Q5HZG4 857-924)
chain: YVIRDEWGNQIWICPGCNKPDDGSPMIGCDDCDDWYHWPCVGIMAAPPEEMQWFCPKCANKIKKDKKH
As to B1, the binding entry in test [1] was “binds”; in test [2], “binds”; in [3], “binds”; in test [4], “binds”; in test [5] it was “binds weakly”; in test [6], “binds weakly”.

B2: GST-Taf3-PHD (Mus musculus Taf3 PHD finger, residues 857-924, GST-tagged) (domain or fragment, UniProt Q5HZG4 857-924)
chain: B1 chain
Take B2: the binding entry in test [7] is “binds weakly”; in test [8] it was “binds”; in test [9], “binds”; in [10] it was “binds”.

For the origin of these results see paper PMC12238850, “Molecular determinants for recognition of serotonylated chromatin” (Nucleic Acids Research, 2025).
